# In the supplement of paper PMC4604168 (melanoma cell lines):
# This is one part of the list. Repeats are few or missing, and single values can be far off.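 The apoptosis fraction was the count of cleaved-PARP antibody-stained nuclei relative to all DNA-stained nuclei, imaged in 1,536-well plates. Screening doses were set so most cells survived, and baseline and induced cleaved-PARP levels vary greatly across cell lines.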
# Assays:
# Assay in all cases: cleaved PARP positive nuclei fraction relative to DMSO control; melanoma cells; higher = more apoptosis
# Details in all cases: library dose: low library concentration; 72 h
# 501Mel = test system: 501Mel
# A101D = test system: A101D
# A2058 = test system: A2058
# A375 = test system: A375
# C32 = test system: C32
# CBRC013 = test system: CBRC013 (line from a melanoma biopsy)
# CBRC014 = test system: CBRC014 (line from a melanoma biopsy)
# CBRC016 = test system: CBRC016 (line from a melanoma biopsy)
# CBRC017 = test system: CBRC017 (line from a melanoma biopsy)
# CBRC034 = test system: CBRC034 (line from a melanoma biopsy)
# COLO792 = test system: COLO792
# COLO800 = test system: COLO800
# COLO829 = test system: COLO829
# G361 = test system: G361
# IPC-298 = test system: IPC-298
# IST-MEL1 = test system: IST-MEL1
# LB2518-MEL = test system: LB2518-MEL
# LOXIMVI = test system: LOXIMVI
Compound,cleaved PARP positive nuclei fraction (501Mel) [%],cleaved PARP positive nuclei fraction (A101D) [%],cleaved PARP positive nuclei fraction (A2058) [%],cleaved PARP positive nuclei fraction (A375) [%],cleaved PARP positive nuclei fraction (C32) [%],cleaved PARP positive nuclei fraction (CBRC013) [%],cleaved PARP positive nuclei fraction (CBRC014) [%],cleaved PARP positive nuclei fraction (CBRC016) [%],cleaved PARP positive nuclei fraction (CBRC017) [%],cleaved PARP positive nuclei fraction (CBRC034) [%],cleaved PARP positive nuclei fraction (COLO792) [%],cleaved PARP positive nuclei fraction (COLO800) [%],cleaved PARP positive nuclei fraction (COLO829) [%],cleaved PARP positive nuclei fraction (G361) [%],cleaved PARP positive nuclei fraction (IPC-298) [%],cleaved PARP positive nuclei fraction (IST-MEL1) [%],cleaved PARP positive nuclei fraction (LB2518-MEL) [%],cleaved PARP positive nuclei fraction (LOXIMVI) [%]
"C#Cc1cccc(Nc2ncnc3cc(OCCOC)c(OCCOC)cc23)c1 [erlotinib] + CCN(CC)CCCCNc1ncc2cc(-c3cc(OC)cc(OC)c3)c(NC(=O)NC(C)(C)C)nc2n1 [PD173074] (first compound 0.8 µM, partner dose 0.1 µM)",219,106,37.4,39.8,198,123,80.4,57.2,82,41.9,156,101,97,46.4,68.4,113,170,25.9
"Cc1ccc(NC(=O)c2cccc(N(C)C)c2)cc1NC(=O)c1ccc(O)cc1 + Cn1cc(/C=C2\C(=O)Nc3cccnc32)c2ccccc21 [GW441756] (first compound 2 µM, partner dose 0.4 µM)",82.7,169,78.2,127,34.8,76,137,108,116,45.5,174,71.4,132,167,155,43.7,379,71.9
"C[C@@H]1CCN(C(=O)CC#N)C[C@@H]1N(C)c1ncnc2[nH]ccc12 + O=S(=O)(c1ccccc1)N(CC(F)(F)F)c1ccc(C(O)(C(F)(F)F)C(F)(F)F)cc1 [T0901317] (first compound 1 µM, partner dose 1.4 µM)",87.7,117,23.2,52.7,70.6,69.5,113,32.1,92.2,65.7,92.3,141,275,44.5,66.9,84.8,87.6,34.8
"COCC[n+]1c2c(n(Cc3cnccn3)c1C)C(=O)c1ccccc1C2=O + Cc1cc([N+](=O)[O-])ccc1NS(=O)(=O)c1cc(Cl)ccc1Cl [FH535] (first compound 0.0004 µM, partner dose 1 µM)",71.9,62.9,102,308,87.3,193,177,1880,744,795,74.6,148,58.3,88.6,65.9,632,89.9,41.6
"C=CCn1c(=O)c2cnc(Nc3ccc(N4CCN(C)CC4)cc3)nc2n1-c1cccc(C(C)(C)O)n1 + COc1cc(N2CCC(N3CCN(C)CC3)CC2)ccc1Nc1ncc(Cl)c(Nc2ccccc2S(=O)(=O)C(C)C)n1 [NVP-TAE684] (first compound 0.02 µM, partner dose 0.08 µM)",79,152,116,326,156,134,118,85.3,92.4,82.5,116,277,135,70.8,57.9,115,104,30.2
"Cn1c(Nc2ccc(C(F)(F)F)cc2)nc2cc(Oc3ccnc(-c4ncc(C(F)(F)F)[nH]4)c3)ccc21 + COc1cc2ncnc(Nc3ccc(Oc4ccccc4)cc3)c2cc1OC [SrcI1] (first compound 0.08 µM, partner dose 2 µM)",112,570,79.5,363,53,238,75.4,70.3,52.1,94,399,46.8,74.1,170,337,42.3,75.7,73.1
"C[C@@H]1CCN(C(=O)CC#N)C[C@@H]1N(C)c1ncnc2[nH]ccc12 + COc1ccc2c(c1)CCC1C2CCC2(C)C(NCCCCCCN3C(=O)C=CC3=O)CCC12 [U73122] (first compound 1 µM, partner dose 0.4 µM)",87.3,84.3,85.3,107,147,157,107,87,87.4,80.6,153,31.1,88.2,74.2,33.3,107,161,12.9
